Measured values from doi:10.1101/2023.11.28.568893.
No constants are given. Whether binding was seen depends on the method and setting. Binding seen in cells or lysates may run through a third protein. Some results given as binding are weak or reduced against the parent protein; the word gives no strength.

By UniProt entry, the sequences of proteins in these tests, tags left out. Residues count along the entry.
UniProt Q8VC19, residues 57-642: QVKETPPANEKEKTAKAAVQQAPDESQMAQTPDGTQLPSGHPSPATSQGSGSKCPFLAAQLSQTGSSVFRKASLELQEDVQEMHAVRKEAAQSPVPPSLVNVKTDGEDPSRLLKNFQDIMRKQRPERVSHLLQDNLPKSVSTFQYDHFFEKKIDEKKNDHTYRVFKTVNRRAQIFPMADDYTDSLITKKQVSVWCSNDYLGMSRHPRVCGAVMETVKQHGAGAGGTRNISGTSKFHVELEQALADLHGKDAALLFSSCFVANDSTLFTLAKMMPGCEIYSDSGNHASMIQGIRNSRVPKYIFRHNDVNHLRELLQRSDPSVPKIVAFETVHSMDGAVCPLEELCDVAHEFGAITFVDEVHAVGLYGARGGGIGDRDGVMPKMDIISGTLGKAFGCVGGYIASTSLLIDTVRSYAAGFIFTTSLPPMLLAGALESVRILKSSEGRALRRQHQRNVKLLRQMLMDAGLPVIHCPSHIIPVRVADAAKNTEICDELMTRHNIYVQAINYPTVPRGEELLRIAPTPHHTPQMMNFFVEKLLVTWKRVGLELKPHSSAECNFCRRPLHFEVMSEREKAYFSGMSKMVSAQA

Target: T1, Propionyl-CoA carboxylase (PCCA) (mouse (endogenous in brown adipocytes)) (UniProt Q91ZA3)
T1 sequence: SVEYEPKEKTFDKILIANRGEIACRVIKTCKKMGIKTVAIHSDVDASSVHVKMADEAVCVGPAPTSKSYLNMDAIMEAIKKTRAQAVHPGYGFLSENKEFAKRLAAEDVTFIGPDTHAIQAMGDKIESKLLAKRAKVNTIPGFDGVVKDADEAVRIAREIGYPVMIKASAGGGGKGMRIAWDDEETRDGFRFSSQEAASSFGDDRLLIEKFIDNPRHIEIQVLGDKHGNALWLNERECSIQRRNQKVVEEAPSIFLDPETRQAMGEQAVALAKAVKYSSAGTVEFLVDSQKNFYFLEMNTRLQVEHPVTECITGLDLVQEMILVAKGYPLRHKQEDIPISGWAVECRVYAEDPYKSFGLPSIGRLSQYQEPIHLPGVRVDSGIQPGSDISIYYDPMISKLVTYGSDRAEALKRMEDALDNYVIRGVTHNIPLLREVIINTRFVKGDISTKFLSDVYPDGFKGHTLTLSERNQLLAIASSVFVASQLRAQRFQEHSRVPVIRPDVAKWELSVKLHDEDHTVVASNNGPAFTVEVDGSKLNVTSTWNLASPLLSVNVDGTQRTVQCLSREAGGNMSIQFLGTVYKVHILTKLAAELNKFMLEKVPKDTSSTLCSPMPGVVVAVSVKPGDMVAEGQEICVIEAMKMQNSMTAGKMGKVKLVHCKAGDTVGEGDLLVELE
Assay: proximity ligation

- binding: binds
Substance: Aminolaevulinic Acid Synthase 1 (ALAS1) (from UniProt Q8VC19 57-642) (enzyme)
